According to PMC5592675:
Results are given in words; binding and its absence hold for the method and conditions named. Binding seen in cells or lysates may run through a third protein. Some entries that bind do so weakly or less than the wild type. For some assays here: Tags and fused reporters may be left off the sequences shown. One block for each molecule: values may come before it.

What was measured:
[1] = target: T1, Myc-tagged LGR5-ΔC (C-terminal tail-truncated mutant, lacking AA 837-907) (UniProt O75473); assay: co-IP; recombinant overexpression in HEK293T cells; whole-cell lysates incubated ~3-4 h at 4 °C with antibody magnetic beads (anti-Myc, anti-FLAG listed); Western blot
T1 sequence: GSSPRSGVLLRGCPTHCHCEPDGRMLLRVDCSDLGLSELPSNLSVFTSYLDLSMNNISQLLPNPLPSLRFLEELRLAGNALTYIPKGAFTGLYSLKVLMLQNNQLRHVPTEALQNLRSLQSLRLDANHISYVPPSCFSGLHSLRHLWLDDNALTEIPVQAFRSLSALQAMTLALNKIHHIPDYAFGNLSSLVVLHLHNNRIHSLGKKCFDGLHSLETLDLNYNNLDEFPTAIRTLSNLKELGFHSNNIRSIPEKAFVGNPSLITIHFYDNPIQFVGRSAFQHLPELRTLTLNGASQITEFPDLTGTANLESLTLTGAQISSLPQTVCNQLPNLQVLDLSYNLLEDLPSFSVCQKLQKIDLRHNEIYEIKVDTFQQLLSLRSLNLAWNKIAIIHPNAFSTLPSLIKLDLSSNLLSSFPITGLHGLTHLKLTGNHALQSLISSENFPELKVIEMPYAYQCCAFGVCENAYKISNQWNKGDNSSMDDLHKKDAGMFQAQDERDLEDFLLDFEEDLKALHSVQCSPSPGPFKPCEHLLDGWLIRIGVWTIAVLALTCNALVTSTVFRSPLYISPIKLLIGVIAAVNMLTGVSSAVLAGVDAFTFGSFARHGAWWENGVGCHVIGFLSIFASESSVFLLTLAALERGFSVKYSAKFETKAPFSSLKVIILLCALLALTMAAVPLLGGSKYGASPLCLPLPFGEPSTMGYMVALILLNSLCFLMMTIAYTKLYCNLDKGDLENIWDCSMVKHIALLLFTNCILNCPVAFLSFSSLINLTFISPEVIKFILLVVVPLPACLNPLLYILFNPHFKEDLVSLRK

[2] = target: T2, Myc-tagged LGR5-WT (leucine-rich repeat-containing G protein-coupled receptor 5) (UniProt O75473); assay: as above
T2 sequence: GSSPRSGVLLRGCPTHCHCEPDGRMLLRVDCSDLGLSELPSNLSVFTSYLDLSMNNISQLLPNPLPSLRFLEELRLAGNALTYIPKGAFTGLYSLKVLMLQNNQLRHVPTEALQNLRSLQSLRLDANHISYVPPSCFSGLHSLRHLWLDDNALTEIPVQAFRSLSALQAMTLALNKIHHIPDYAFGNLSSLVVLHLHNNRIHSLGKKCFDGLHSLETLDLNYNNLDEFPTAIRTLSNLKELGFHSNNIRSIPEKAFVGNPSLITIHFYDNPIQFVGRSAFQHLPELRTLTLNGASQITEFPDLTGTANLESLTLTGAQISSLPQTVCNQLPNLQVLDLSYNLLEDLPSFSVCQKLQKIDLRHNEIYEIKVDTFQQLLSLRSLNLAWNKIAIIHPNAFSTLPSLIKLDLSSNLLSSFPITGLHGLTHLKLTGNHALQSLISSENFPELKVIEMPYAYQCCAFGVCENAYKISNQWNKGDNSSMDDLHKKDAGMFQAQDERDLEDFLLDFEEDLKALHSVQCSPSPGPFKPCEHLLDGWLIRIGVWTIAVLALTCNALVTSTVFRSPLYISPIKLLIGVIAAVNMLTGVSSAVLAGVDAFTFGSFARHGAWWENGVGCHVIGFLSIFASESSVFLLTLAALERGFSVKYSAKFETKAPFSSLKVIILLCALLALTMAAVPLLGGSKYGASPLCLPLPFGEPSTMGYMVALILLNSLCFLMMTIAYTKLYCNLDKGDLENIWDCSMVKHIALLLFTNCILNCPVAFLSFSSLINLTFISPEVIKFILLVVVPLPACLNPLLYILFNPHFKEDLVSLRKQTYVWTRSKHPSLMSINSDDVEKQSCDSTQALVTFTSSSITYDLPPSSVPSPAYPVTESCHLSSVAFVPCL

[3] = target: T3, endogenous LGR5 of LoVo colon cancer cells (human (endogenous in LoVo)) (UniProt O75473); assay: co-IP; endogenous proteins of LoVo cells; precipitation with an LGR5-specific antibody; Western blot for IQGAP1
T3 sequence: T2 sequence

[4] = target: T2, Myc-tagged LGR5-WT (leucine-rich repeat-containing G protein-coupled receptor 5); assay: co-IP; purified IQGAP1 fragment DR6 (from E. coli) with LGR5-WT or LGR5-ECD; Western blot; only the binder purified

- binding [1]: binds
- binding [2]: binds
Molecule: FLAG-tagged IQGAP1 (IQ motif-containing GTPase-activating protein 1) (from UniProt Q9JKF1 1-1657)

- binding [3]: binds
Molecule: endogenous human IQGAP1 (from UniProt P46940 1-1657)

- binding [4]: binds
Molecule: purified IQGAP1 fragment spanning amino acids 877-1558 (DR6) (from UniProt P46940 877-1558) (domain or fragment)

- binding [2]: binds
B1: FLAG-IQGAP1 C-terminal half spanning amino acids 893-1657 (domain or fragment, UniProt Q9JKF1 893-1657)
chain: REEVITLIRSNQQLENDLNLMDIKIGLLVKNKITLQDVVSHSKKLTKKNKEQLSDMMMINKQKGGLKALSKEKREKLEAYQHLFYLLQTNPTYLAKLIFQMPQNKSTKFMDSVIFTLYNYASNQREEYLLLRLFQTALQEEIKSKVDQIQEIVTGNPTVIKMVVSFNRGARGQNALRQILAPVVKEIMDDKSLNIKTDPVDIYKSWVNQMESQTGEASKLPYDVTPEQALSHEEVKTRLDNSIRNMRAVTDKFLSAIVSSVDKIPYGMRFIAKVLKDSLHEKFPDAGEDELLKIIGNLLYYRYMNPAIVAPDAFDIIDLSAGGQLTTDQRRNLGSIAKMLQHAASNKMFLGDNAHLSIINEYLSQSYQKFRRFFQVACDVPELQDKFNVDEYSDLVTLTKPVIYISIGEIINTHTLLLDHQDAIAPEHNDPIHELLDDLGEVPTIESLIGESCGNSNDPNKEALAKTEVSLTLTNKFDVPGDENAEMDARTILLNTKRLIVDVIRFQPGETLTEILETPATNEQEAEHQRAMQRRAIRDAKTPDKMKKSKPMKEDNNLSLQEKKEKIQTGLKKLTELGTVDPKNRYQELINDIAKDIRNQRRYRQRRKAELVKLQQTYSALNSKATFYGEQVDYYKSYIKTCLDNLASKGKVSKKPREMKGKKSKKISLKYTAARLHEKGVLLEIEDLQANQFKNVIFEIGPTEEVGDFEVKAKFMGVQMETFMLHYQDLLQLQYEGVAVMKLFDRAKVNVNLLIFLLNKKFYGK
